Reference: patent publication US20070238727A1, “5-Substituted 1-Phenyl-1,5-Dihydro-Pyrido[3,2-B]Indol-2-Ones and Analogs as Anti-Virals” (Tibotec BVBA, priority 2004, published 2007)
At least one structure is not confirmed: it was looked up by name or label, or the drawing left a doubt.

Biological target: T1, HIV reverse transcriptase (Human immunodeficiency virus type 1 group M subtype B, UniProt P04585)
T1 construct: 5 μl HIV RT enzyme solution at a final enzyme activity of 15 mU per 50 μl reaction; purchased Amersham Life Sciences TRK 1022
Assay: In vitro inhibition of HIV reverse transcriptase (kit TRK 1022, 3H-TTP)
Assay type: biochemical
Settings: HIV RT enzyme, 4 hours at 37° C., no conversion to active metabolite needed
Description: The assay was run using kit TRK 1022 (Amersham Life Sciences) according to the manufacturer's instructions with slight modifications. Test compounds were diluted in steps of 1/4 in 100% DMSO and subsequently transferred to Medium A (1/50 dilution; medium A: RPMI 1640+10% FetalClone 1+Gentamycin 20 mg/L). 25 μl of compound (in 2% DMSO in Medium A) or 25 μl of 2% DMSO in medium A was added to wells. To each well was added 25.5 μl master mix (master mix: 5 μl primer/template beads, 10 μl assay buffer, 0.5 μl tracer (3H-TTP), 5 μl HIV RT enzyme solution at a final enzyme activity of 15 mU per 50 μl reaction, 5 μl medium A). The plates were sealed, marked as radioactive and incubated during 4 hours at 37° C. Subsequently, 100 μl stop solution was added to each well (except R1). The radioactivity was counted in a TopCount.

For `N#Cc1cc2c(c3ccccc3n2CC(O)CN2CCSCC2)n(-c2ccc([N+](=O)[O-])cc2)c1=O` (stereo not shown) [Compound 9], the “inhibition of HIV reverse transcriptase in vitro” value was “inhibit IV reverse transcriptase in vitro”.
